The test deals with eIF4G1, endogenous (human (endogenous in HEK293T)) (UniProt Q04637). The test is described as follows: co-IP; endogenous eIF4G1 precipitated from lysates with or without RNase A.

Sequences of proteins named here, by UniProt entry; tags and fusion partners are left off.
UniProt Q04637: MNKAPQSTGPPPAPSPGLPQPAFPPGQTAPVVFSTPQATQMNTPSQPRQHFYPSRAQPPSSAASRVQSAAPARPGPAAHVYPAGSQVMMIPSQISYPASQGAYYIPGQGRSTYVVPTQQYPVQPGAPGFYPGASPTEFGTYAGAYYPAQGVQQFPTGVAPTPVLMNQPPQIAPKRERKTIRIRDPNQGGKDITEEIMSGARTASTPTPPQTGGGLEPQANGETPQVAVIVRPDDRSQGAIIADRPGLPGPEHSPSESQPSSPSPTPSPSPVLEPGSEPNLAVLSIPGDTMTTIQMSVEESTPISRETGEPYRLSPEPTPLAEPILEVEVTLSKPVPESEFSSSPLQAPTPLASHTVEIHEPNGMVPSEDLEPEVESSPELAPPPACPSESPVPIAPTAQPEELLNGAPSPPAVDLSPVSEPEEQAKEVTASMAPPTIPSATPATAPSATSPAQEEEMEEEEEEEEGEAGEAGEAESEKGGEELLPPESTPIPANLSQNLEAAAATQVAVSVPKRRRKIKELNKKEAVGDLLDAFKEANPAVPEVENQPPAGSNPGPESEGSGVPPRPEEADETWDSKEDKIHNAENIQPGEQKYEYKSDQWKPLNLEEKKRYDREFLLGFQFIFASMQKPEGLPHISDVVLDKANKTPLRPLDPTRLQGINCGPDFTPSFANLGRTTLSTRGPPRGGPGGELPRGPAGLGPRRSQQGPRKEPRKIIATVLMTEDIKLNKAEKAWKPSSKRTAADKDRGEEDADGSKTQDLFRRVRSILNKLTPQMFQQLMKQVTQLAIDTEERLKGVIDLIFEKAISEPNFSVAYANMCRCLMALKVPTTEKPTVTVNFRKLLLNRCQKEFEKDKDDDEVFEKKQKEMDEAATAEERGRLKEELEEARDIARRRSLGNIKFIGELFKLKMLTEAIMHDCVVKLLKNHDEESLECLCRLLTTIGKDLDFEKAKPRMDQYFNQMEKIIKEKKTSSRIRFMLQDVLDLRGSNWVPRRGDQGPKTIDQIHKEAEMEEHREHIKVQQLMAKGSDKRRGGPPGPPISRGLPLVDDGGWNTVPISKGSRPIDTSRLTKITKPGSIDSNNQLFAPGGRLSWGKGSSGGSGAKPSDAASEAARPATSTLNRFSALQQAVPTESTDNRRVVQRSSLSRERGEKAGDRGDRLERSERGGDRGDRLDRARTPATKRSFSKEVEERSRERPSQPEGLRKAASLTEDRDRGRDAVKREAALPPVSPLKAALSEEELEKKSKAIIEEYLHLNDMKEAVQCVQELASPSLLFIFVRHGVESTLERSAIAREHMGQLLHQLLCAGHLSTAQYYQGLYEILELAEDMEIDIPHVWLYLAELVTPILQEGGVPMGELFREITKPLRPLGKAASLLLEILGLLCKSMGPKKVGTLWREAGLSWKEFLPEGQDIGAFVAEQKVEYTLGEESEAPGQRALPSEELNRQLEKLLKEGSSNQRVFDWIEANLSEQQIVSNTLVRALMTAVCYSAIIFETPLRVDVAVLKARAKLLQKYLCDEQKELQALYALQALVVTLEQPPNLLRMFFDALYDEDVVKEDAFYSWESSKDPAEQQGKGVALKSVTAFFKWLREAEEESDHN
UniProt P55884: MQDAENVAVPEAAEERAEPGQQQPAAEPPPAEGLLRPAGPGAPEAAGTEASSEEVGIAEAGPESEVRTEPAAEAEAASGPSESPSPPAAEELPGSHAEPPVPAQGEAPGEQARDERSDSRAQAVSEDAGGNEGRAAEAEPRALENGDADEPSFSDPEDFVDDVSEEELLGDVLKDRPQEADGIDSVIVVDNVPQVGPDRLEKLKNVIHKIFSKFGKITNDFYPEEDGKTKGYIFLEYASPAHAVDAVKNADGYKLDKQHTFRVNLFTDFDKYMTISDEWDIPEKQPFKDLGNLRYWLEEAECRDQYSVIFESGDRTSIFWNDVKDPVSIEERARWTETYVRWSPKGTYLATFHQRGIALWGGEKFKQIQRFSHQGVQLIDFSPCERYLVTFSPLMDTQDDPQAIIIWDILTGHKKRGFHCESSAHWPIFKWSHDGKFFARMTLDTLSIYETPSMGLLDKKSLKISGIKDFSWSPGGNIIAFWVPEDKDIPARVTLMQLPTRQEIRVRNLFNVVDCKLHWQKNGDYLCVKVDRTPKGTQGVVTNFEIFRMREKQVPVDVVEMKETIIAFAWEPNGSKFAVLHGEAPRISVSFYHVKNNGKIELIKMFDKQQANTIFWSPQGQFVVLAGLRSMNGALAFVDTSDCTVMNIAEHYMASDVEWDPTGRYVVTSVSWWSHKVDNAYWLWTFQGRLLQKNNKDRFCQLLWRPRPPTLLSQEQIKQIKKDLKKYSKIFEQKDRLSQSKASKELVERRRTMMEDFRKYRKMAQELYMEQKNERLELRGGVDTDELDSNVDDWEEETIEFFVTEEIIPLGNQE

The record followed here is PMC5484620.

These are yes or no findings as the source states them, for the method shown. In cells and extracts the contact can be indirect. Some results given as binding are weak or reduced against the parent protein; the word gives no strength.

For “eIF3B, endogenous (from UniProt P55884 1-814)”, the binding result was “binds”.
